Results deposited as PubChem BioAssay AID1671195 (Yale University, 2021).
Aim: 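Knockdowns that increase or decrease uptake of fluorescent LDL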 (primary screen). Cell system: human Huh7 hepatoma cells. Reagent: siRNA pool against human genes, 18 nM. Time to read-out: about 2 to 2.5 days of knockdown, then 8 h LDL uptake. Challenge: DiI-labelled LDL at 30 µg/ml for 8 h, in lipoprotein-deficient serum medium. Read-out: 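Fluorescent LDL signal imaged in cells, scaled to the plate median, robust z-score for each replicate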. Scale: robust z-score: higher = more LDL uptake after knockdown. Rule for the call: 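a gene counts as active if at least two replicate z-scores exceed ±2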.
This is a random part of about 22,000 deposited reagents. About 1,510 of all reagents (6.9%) were called active. 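Active includes knockdowns raising or lowering LDL uptake; positive z-scores mean more uptake, negative mean less.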 Entries without a mark were called inactive. Reagents against one gene are numbered here.

{"gene": "DLG2", "reagent": 1, "robust z-score, replicate 1": 1.33, "robust z-score, replicate 2": 1.2, "robust z-score, replicate 3": 1.56}
{"gene": "DLG2", "reagent": 2, "robust z-score, replicate 1": -1.07, "robust z-score, replicate 2": -0.113, "robust z-score, replicate 3": -0.516}
{"gene": "RGPD2", "reagent": 1, "robust z-score, replicate 1": -0.545, "robust z-score, replicate 2": -0.521, "robust z-score, replicate 3": -0.616}
{"gene": "LOC440402 (retired record)", "reagent": 1, "robust z-score, replicate 1": -0.538, "robust z-score, replicate 2": -0.0562, "robust z-score, replicate 3": -0.345}
{"gene": "IL27RA", "reagent": 1, "robust z-score, replicate 1": 1.3, "robust z-score, replicate 2": 0.494, "robust z-score, replicate 3": 0.757}
{"gene": "HK2", "reagent": 1, "robust z-score, replicate 1": -0.942, "robust z-score, replicate 2": -0.467, "robust z-score, replicate 3": -1.13}
{"gene": "STPG4", "reagent": 1, "robust z-score, replicate 1": -0.381, "robust z-score, replicate 2": -0.47, "robust z-score, replicate 3": -0.506}
{"gene": "EFNB3", "reagent": 1, "robust z-score, replicate 1": 0.294, "robust z-score, replicate 2": 1.72, "robust z-score, replicate 3": 0.214}
{"gene": "GNG7", "reagent": 1, "robust z-score, replicate 1": 0.963, "robust z-score, replicate 2": 1.2, "robust z-score, replicate 3": 1.45}
{"gene": "CDKN2A", "reagent": 1, "robust z-score, replicate 1": 0.693, "robust z-score, replicate 2": 0.255, "robust z-score, replicate 3": 0.793}
{"gene": "VMA22", "reagent": 1, "robust z-score, replicate 1": -0.973, "robust z-score, replicate 2": -0.851, "robust z-score, replicate 3": -1.07}
{"gene": "WTAP", "reagent": 1, "robust z-score, replicate 1": 2.31, "robust z-score, replicate 2": 0.437, "robust z-score, replicate 3": -0.503}
{"gene": "TULP1", "reagent": 1, "robust z-score, replicate 1": 1.13, "robust z-score, replicate 2": -1, "robust z-score, replicate 3": -0.641}
{"gene": "CACHD1", "reagent": 1, "robust z-score, replicate 1": 0.999, "robust z-score, replicate 2": 0.805, "robust z-score, replicate 3": 2.74}
{"gene": "COL6A4P1", "reagent": 1, "robust z-score, replicate 1": 0.148, "robust z-score, replicate 2": 0.472, "robust z-score, replicate 3": 0.739}
{"gene": "GPR137B", "reagent": 1, "robust z-score, replicate 1": "2.31 (active)", "robust z-score, replicate 2": 1.6, "robust z-score, replicate 3": 2.62}

Not a retest: entries from further up.
{"gene": "COL6A4P1", "reagent": 1, "robust z-score, replicate 1": 0.148, "robust z-score, replicate 2": 0.472, "robust z-score, replicate 3": 0.739}
{"gene": "GPR137B", "reagent": 1, "robust z-score, replicate 1": "2.31 (active)", "robust z-score, replicate 2": 1.6, "robust z-score, replicate 3": 2.62}
